According to the supplement of paper PMC10849652:
The other results are listed elsewhere or left out.

Protein sequences, listed by entry. Tags and fused reporters are not part of them. Lines headed by an entry give the natural chain unless they say otherwise; changes in a name come on top.
UniProt Q5TA45, whole entry, looked up: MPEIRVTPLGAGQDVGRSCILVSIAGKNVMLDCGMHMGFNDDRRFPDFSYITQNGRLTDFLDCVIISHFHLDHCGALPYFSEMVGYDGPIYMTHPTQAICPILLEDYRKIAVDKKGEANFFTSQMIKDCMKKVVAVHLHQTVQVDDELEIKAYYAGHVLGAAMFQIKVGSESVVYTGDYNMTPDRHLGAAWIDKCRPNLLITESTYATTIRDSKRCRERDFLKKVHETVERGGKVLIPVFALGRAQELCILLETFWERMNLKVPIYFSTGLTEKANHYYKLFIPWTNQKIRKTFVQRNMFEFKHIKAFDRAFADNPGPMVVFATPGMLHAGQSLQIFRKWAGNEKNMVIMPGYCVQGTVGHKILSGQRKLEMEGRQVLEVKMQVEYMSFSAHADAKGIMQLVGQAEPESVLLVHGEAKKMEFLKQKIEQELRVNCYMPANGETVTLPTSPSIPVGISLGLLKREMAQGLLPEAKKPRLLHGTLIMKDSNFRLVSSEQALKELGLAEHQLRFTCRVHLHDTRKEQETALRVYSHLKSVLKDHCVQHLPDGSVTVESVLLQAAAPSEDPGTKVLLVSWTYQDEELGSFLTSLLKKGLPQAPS
UniProt Q14653: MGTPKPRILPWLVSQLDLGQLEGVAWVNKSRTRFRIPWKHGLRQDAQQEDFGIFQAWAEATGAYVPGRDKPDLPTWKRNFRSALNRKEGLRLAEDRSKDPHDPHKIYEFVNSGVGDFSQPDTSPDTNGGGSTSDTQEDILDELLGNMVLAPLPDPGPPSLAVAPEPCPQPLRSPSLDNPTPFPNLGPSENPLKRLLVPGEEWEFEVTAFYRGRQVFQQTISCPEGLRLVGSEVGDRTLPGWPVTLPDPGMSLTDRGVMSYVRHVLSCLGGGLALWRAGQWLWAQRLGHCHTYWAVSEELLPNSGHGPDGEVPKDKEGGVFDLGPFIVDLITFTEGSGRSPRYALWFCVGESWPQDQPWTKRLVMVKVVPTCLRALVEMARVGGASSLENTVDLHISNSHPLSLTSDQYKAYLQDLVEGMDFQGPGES
UniProt Q9BUE6: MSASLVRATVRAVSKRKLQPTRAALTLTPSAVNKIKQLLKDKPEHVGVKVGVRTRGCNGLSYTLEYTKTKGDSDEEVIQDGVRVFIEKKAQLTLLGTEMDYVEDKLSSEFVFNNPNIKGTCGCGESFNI
UniProt Q96AB3: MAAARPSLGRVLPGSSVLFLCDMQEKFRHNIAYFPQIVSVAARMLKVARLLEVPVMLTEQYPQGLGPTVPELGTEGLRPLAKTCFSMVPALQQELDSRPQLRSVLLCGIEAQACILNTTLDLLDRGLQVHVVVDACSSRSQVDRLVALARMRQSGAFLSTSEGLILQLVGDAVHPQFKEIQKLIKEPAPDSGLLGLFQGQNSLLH
UniProt O75874, whole entry, looked up: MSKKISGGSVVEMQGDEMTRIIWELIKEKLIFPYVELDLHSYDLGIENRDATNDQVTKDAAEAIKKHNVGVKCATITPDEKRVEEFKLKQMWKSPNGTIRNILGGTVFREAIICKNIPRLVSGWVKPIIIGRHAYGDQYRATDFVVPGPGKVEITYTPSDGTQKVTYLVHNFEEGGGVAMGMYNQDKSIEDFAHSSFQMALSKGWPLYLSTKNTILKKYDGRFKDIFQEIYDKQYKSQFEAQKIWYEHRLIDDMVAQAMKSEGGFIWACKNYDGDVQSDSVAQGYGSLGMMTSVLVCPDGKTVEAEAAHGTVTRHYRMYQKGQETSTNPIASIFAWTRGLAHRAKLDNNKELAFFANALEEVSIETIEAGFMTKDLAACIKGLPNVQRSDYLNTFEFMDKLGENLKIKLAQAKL
UniProt Q96T52: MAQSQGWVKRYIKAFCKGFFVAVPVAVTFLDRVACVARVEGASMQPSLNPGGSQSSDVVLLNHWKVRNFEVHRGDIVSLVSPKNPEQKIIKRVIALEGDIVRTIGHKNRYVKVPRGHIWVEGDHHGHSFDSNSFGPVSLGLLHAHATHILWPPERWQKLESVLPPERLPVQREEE
UniProt P08648, whole entry, looked up: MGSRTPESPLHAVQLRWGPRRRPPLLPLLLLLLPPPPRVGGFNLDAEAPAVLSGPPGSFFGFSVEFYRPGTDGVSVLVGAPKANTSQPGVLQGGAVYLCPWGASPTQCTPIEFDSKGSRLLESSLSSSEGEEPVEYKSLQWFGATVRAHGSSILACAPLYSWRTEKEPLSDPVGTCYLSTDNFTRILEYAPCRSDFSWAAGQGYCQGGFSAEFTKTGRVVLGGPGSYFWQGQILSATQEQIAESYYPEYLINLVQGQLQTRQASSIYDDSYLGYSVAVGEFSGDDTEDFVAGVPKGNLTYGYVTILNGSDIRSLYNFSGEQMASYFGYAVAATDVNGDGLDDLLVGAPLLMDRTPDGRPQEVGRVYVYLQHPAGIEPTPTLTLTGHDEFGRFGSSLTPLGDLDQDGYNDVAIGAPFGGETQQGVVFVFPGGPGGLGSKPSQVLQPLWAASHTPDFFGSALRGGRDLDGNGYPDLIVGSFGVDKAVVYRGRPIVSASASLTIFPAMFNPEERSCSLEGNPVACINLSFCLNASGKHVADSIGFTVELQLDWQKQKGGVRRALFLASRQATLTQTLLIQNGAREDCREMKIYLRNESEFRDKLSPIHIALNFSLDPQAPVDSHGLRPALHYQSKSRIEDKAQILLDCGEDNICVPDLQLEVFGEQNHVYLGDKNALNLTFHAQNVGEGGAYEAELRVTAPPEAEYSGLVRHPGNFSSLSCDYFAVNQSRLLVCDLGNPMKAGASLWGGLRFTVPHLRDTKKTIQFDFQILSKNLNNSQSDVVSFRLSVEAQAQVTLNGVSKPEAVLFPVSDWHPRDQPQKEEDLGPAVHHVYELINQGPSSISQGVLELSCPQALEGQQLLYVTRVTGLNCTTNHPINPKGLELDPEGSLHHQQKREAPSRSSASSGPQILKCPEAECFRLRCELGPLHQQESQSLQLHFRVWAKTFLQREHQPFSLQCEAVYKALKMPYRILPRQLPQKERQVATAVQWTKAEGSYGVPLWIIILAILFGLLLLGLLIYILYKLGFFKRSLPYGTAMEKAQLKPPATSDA
UniProt P48200: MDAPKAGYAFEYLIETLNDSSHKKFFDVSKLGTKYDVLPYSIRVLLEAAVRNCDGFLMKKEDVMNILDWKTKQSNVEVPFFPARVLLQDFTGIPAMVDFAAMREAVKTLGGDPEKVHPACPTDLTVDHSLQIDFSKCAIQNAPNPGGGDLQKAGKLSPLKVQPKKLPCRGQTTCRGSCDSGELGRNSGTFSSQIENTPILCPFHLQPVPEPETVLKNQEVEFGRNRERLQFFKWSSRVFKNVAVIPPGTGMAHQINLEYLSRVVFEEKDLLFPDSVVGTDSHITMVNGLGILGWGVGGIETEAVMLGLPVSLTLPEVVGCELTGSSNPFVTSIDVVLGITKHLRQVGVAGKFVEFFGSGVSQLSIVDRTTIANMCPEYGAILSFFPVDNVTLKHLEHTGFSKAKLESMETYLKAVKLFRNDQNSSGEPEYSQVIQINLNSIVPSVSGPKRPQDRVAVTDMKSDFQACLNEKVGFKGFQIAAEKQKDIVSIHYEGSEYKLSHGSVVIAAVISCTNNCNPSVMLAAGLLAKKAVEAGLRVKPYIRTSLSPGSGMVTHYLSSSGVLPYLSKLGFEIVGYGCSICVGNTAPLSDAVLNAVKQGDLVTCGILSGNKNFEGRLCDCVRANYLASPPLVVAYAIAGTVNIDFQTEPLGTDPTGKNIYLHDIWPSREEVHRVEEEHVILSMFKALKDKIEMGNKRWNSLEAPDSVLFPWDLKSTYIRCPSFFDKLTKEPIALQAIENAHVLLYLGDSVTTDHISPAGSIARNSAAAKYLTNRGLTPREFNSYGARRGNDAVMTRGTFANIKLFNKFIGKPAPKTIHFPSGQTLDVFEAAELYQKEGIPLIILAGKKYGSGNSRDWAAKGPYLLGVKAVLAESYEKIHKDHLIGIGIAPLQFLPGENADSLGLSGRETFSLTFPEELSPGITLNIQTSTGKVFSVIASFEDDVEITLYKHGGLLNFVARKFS
UniProt Q9H0H0, whole entry, looked up: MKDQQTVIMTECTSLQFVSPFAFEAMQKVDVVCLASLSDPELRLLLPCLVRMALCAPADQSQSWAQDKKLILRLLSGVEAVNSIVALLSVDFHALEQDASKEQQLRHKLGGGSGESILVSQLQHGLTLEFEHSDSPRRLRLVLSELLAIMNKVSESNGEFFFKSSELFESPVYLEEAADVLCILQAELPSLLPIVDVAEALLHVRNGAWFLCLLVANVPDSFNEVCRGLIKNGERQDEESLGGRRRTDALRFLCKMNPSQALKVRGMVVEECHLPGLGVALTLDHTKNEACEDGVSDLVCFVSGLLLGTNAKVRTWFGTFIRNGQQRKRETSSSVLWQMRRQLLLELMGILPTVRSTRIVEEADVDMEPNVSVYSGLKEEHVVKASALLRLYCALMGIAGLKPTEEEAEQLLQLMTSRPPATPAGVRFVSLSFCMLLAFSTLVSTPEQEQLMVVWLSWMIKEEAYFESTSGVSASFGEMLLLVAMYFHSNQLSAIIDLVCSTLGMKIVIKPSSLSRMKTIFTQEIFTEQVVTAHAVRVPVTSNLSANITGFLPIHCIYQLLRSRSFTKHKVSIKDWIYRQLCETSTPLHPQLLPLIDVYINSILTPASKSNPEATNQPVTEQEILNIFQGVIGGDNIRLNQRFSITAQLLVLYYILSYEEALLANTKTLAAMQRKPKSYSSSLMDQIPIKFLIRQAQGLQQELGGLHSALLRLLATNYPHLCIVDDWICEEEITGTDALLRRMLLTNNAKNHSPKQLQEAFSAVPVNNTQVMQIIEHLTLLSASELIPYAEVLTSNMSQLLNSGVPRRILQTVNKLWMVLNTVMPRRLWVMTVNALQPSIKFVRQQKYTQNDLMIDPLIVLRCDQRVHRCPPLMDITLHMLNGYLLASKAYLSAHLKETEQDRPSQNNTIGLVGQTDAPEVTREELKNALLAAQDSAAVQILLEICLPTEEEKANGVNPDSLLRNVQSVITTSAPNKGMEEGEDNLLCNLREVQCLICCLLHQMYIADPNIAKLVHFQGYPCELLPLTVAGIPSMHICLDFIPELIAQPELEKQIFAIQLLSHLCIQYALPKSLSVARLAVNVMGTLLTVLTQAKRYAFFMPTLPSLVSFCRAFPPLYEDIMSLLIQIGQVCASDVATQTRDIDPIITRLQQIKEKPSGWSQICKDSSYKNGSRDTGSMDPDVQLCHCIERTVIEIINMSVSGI
UniProt Q70UQ0: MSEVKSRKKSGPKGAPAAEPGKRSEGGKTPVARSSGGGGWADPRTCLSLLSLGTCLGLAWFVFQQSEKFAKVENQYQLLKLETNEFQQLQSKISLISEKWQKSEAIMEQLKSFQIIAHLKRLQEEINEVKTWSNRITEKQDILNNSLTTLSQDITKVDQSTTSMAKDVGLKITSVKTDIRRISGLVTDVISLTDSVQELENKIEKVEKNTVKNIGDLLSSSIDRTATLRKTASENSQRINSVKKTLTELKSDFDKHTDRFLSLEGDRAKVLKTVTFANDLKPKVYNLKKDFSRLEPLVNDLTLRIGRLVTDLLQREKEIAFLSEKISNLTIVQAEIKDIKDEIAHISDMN
UniProt Q9ULR0: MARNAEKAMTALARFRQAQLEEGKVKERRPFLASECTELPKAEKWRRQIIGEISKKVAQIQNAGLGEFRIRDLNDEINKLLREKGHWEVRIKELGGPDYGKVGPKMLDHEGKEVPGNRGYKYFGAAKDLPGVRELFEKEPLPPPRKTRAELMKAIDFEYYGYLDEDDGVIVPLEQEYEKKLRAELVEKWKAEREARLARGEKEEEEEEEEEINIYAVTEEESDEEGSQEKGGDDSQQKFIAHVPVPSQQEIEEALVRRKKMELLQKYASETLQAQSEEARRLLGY
UniProt Q96CN7: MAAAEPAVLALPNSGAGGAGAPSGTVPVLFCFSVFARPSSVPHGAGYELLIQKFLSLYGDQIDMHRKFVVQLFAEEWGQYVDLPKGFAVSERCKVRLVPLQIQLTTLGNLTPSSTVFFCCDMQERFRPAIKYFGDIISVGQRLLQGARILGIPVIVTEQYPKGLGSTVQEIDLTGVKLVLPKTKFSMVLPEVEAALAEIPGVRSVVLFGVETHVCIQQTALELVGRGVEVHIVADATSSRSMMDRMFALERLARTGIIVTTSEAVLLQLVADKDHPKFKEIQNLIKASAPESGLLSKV
UniProt P78318: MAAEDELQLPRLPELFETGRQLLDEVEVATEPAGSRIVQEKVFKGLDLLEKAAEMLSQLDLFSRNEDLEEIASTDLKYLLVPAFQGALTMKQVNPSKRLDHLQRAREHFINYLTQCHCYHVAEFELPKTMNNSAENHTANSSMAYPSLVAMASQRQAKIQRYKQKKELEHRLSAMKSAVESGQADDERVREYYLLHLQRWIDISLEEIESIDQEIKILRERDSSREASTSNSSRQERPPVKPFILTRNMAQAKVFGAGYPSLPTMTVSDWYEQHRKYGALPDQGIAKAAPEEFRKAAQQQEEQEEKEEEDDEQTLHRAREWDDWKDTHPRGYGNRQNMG

Columns and labels:
Assay in all cases: log2 fold change, soluble protein after heating vs DMSO (PISA); higher = thermal stabilisation; K562 cells, 10 uM, 30 min; active = over 0.2 and 3.5 SD of the protein, either way, in both replicates (recomputed)
[1] = compound: CS(=O)(=O)c1ccc(-c2cnc(N)c(C(=O)Nc3ccccc3)n2)cc1
Procedure, shortened: (§1)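 K562 cells at 2×10^6 cells/mL were exposed to 10 μM compound for 30 min, then aliquots were heated for 3 min across 48°C-58°C, pooled, and extracted in PBS containing 0.5% NP-40 at 4°C. The supernatant after 21,000xg for 90 min was taken as soluble protein and measured by TMTpro 16plex LC-MS/MS with channel sums equalised. Thermal stability is reported relative to control samples, with values from duplicates. Fold changes are given on a log2 scale.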

crizotinib = compound: C[C@@H](Oc1cc(-c2cnn(C3CCNCC3)c2)cnc1N)c1c(Cl)ccc(F)c1Cl [crizotinib]
Procedure, shortened: as §1

[2] = compound: C[C@@H]1COCCN1C2=NC(=NC(=C2)C3(CC3)S(=O)(=O)C)C4=C5C=CNC5=CC=C4
Procedure, shortened: as §1

[3] = compound: C[C@H](C1=CC=C(C=C1)C(=O)NC2=C3C=CNC3=NC=C2)N
Procedure, shortened: as §1

duvelisib = compound: C[C@H](Nc1ncnc2nc[nH]c12)c1cc2cccc(Cl)c2c(=O)n1-c1ccccc1 [duvelisib]
Procedure, shortened: as §1

tozasertib = compound: Cc1cc(Nc2cc(N3CCN(C)CC3)nc(Sc3ccc(NC(=O)C4CC4)cc3)n2)n[nH]1 [tozasertib]
Procedure, shortened: as §1

[4] = compound: Cc1cc(SCc2sc(-c3ccc(C(F)(F)F)cc3)nc2C)ccc1OCC(=O)O
Procedure, shortened: as §1

doramapimod = compound: Cc1ccc(-n2nc(C(C)(C)C)cc2NC(=O)Nc2ccc(OCCN3CCOCC3)c3ccccc23)cc1 [doramapimod]
Procedure, shortened: as §1

ispinesib = compound: Cc1ccc(C(=O)N(CCCN)[C@@H](c2nc3cc(Cl)ccc3c(=O)n2Cc2ccccc2)C(C)C)cc1 [ispinesib]
Procedure, shortened: as §1

bafetinib = compound: Cc1ccc(NC(=O)c2ccc(CN3CC[C@H](N(C)C)C3)c(C(F)(F)F)c2)cc1Nc1nccc(-c2cncnc2)n1 [bafetinib]
Procedure, shortened: as §1

nilotinib = compound: Cc1cn(-c2cc(NC(=O)c3ccc(C)c(Nc4nccc(-c5cccnc5)n4)c3)cc(C(F)(F)F)c2)cn1 [nilotinib]
Procedure, shortened: as §1

[5] = compound: Cc1nc(Nc2n[nH]c3c2CN(C(=O)N[C@H](CN(C)C)c2ccccc2)C3(C)C)c2sccc2n1
Procedure, shortened: as §1

dasatinib = compound: Cc1nc(Nc2ncc(C(=O)Nc3c(C)cccc3Cl)s2)cc(N2CCN(CCO)CC2)n1 [dasatinib]
Procedure, shortened: as §1

[6] = compound: Cc1ncc(-c2ccnc(Nc3ccc(S(C)(=O)=O)cc3)n2)n1C(C)C
Procedure, shortened: as §1

[7] = compound: Cn1cc(-c2ccc3c(c2)CCN3C(=O)Cc2cccc(C(F)(F)F)c2)c2c(N)ncnc21
Procedure, shortened: as §1

[8] = compound: Cn1cc(-c2ccc3nnc(C(F)(F)c4ccc5ncccc5c4)n3n2)cn1
Procedure, shortened: as §1

tipifarnib = compound: Cn1cncc1[C@@](N)(c1ccc(Cl)cc1)c1ccc2c(c1)c(-c1cccc(Cl)c1)cc(=O)n2C [tipifarnib]
Procedure, shortened: as §1

mubritinib = compound: FC(F)(F)c1ccc(/C=C/c2nc(COc3ccc(CCCCn4ccnn4)cc3)co2)cc1 [mubritinib]
Procedure, shortened: as §1

gandotinib = compound: Cc1cc(Nc2cc(CN3CCOCC3)c3nc(C)c(Cc4ccc(Cl)cc4F)n3n2)n[nH]1 [gandotinib]
Procedure, shortened: as §1

[9] = compound: Cc1cccc(CC(=O)N2CCc3c2ccc(-c2cn(C)c4ncnc(N)c24)c3F)n1
Procedure, shortened: as §1

Measured: log2 fold change

ITFG2 (UniProt Q969R8)
inactive: [1] 0.089 | crizotinib -0.033 | [2] 0.119 | [3] -0.017 | duvelisib 0.102 | tozasertib 0.057 | [4] 0.088 | doramapimod 0.065 | ispinesib 0.018 | bafetinib -0.097 | nilotinib -0.02 | [5] 0.025 | dasatinib 0.047 | [6] -0.084 | [7] -0.046 | [8] 0.03 | tipifarnib -0.131 | mubritinib 0.013

INTS11 (UniProt Q5TA45)
inactive: [1] -0.002 | crizotinib 0.14 | [2] -0.035 | [3] -0.031 | duvelisib -0.025 | gandotinib 0.051 | tozasertib 0.005 | [4] 0.039 | doramapimod 0.004 | ispinesib 0.028 | bafetinib -0.006 | [9] 0.019 | nilotinib -0.013 | [5] 0.016 | dasatinib -0.018 | [6] -0.01 | [7] -0.008 | [8] 0.004 | tipifarnib 0.007 | mubritinib 0.044

IRF3 (UniProt Q14653)
inactive: [1] -0.146 | crizotinib 0.007 | [2] 0.056 | [3] -0.027 | gandotinib -0.068 | [4] 0.053 | doramapimod -0.038 | ispinesib 0.022 | bafetinib 0.033 | [9] 0.023 | nilotinib 0.066 | [5] -0.191 | dasatinib -0.1 | [6] -0.04 | [7] 0.106 | [8] 0.005 | tipifarnib -0.023 | mubritinib 0.039

IFNAR1 (UniProt P17181)
inactive: [1] 0.076 | crizotinib -0.071 | [2] -0.02 | [3] 0.041 | duvelisib -0.025 | gandotinib -0.119 | tozasertib -0.034 | [4] 0.044 | doramapimod 0.023 | ispinesib 0.059 | bafetinib 0.074 | [9] -0.013 | nilotinib 0.038 | [5] -0.016 | dasatinib -0.278 | [6] 0.147 | [7] -0.056 | [8] 0.109 | tipifarnib 0.008 | mubritinib 0.011

ITCH (UniProt Q96J02)
inactive: [1] 0.023 | crizotinib -0.154 | [2] 0.025 | [3] 0.046 | duvelisib 0.016 | gandotinib -0.131 | tozasertib -0.023 | [4] -0.021 | doramapimod 0.045 | ispinesib -0.092 | bafetinib -0.072 | [9] -0.044 | nilotinib -0.07 | [5] -0.043 | dasatinib -0.093 | [6] 0.105 | [7] 0.016 | [8] 0.01 | tipifarnib -0.032 | mubritinib -0.012

ISCA1 isoform 2 (UniProt Q9BUE6)
inactive: [1] -0.018 | crizotinib 0.152 | [2] -0.051 | [3] 0 | duvelisib 0.088 | gandotinib -0.015 | tozasertib 0.032 | [4] -0.019 | doramapimod -0.086 | bafetinib -0.075 | [9] 0.031 | nilotinib 0.031 | [5] -0.012 | dasatinib -0.059 | [6] -0.053 | [7] 0.039 | tipifarnib -0.008 | mubritinib 0.078

Quoted from above (5 entries):
INTS11 (UniProt Q5TA45)
inactive: [1] -0.002 | crizotinib 0.14 | [2] -0.035 | [3] -0.031 | duvelisib -0.025 | gandotinib 0.051 | tozasertib 0.005 | [4] 0.039 | doramapimod 0.004 | ispinesib 0.028 | bafetinib -0.006 | [9] 0.019 | nilotinib -0.013 | [5] 0.016 | dasatinib -0.018 | [6] -0.01 | [7] -0.008 | [8] 0.004 | tipifarnib 0.007 | mubritinib 0.044

IRF3 (UniProt Q14653)
inactive: [1] -0.146 | crizotinib 0.007 | [2] 0.056 | [3] -0.027 | gandotinib -0.068 | [4] 0.053 | doramapimod -0.038 | ispinesib 0.022 | bafetinib 0.033 | [9] 0.023 | nilotinib 0.066 | [5] -0.191 | dasatinib -0.1 | [6] -0.04 | [7] 0.106 | [8] 0.005 | tipifarnib -0.023 | mubritinib 0.039

IFNAR1 (UniProt P17181)
inactive: [1] 0.076 | crizotinib -0.071 | [2] -0.02 | [3] 0.041 | duvelisib -0.025 | gandotinib -0.119 | tozasertib -0.034 | [4] 0.044 | doramapimod 0.023 | ispinesib 0.059 | bafetinib 0.074 | [9] -0.013 | nilotinib 0.038 | [5] -0.016 | dasatinib -0.278 | [6] 0.147 | [7] -0.056 | [8] 0.109 | tipifarnib 0.008 | mubritinib 0.011

ITCH (UniProt Q96J02)
inactive: [1] 0.023 | crizotinib -0.154 | [2] 0.025 | [3] 0.046 | duvelisib 0.016 | gandotinib -0.131 | tozasertib -0.023 | [4] -0.021 | doramapimod 0.045 | ispinesib -0.092 | bafetinib -0.072 | [9] -0.044 | nilotinib -0.07 | [5] -0.043 | dasatinib -0.093 | [6] 0.105 | [7] 0.016 | [8] 0.01 | tipifarnib -0.032 | mubritinib -0.012

ISCA1 isoform 2 (UniProt Q9BUE6)
inactive: [1] -0.018 | crizotinib 0.152 | [2] -0.051 | [3] 0 | duvelisib 0.088 | gandotinib -0.015 | tozasertib 0.032 | [4] -0.019 | doramapimod -0.086 | bafetinib -0.075 | [9] 0.031 | nilotinib 0.031 | [5] -0.012 | dasatinib -0.059 | [6] -0.053 | [7] 0.039 | tipifarnib -0.008 | mubritinib 0.078

Later entries

ISOC2 (UniProt Q96AB3)
inactive: [1] 0.035 | crizotinib 0.023 | [2] 0.003 | [3] 0.275 | duvelisib -0.198 | tozasertib -0.052 | [4] 0.111 | doramapimod -0.019 | ispinesib 0.166 | bafetinib -0.052 | nilotinib 0.047 | [5] 0.043 | dasatinib -0.018 | [6] -0.047 | [7] -0.103 | [8] 0.094 | tipifarnib -0.041 | mubritinib -0.053

IPO8 (UniProt O15397)
inactive: [1] 0.008 | crizotinib -0.17 | [2] -0.197 | [3] 0.348 | duvelisib -0.014 | tozasertib 0.065 | [4] 0.004 | doramapimod 0.155 | ispinesib -0.069 | bafetinib 0.012 | dasatinib -0.098 | [7] -0.185 | [8] -0.098 | tipifarnib -0.053

IDH1 (UniProt O75874)
inactive: [1] -0.016 | crizotinib 0.003 | [2] 0.013 | [3] -0.071 | duvelisib 0.02 | gandotinib -0.007 | tozasertib -0.043 | [4] -0.027 | doramapimod -0.028 | ispinesib 0.027 | bafetinib -0.02 | [9] 0.002 | nilotinib 0.002 | [5] 0.017 | dasatinib 0.057 | [6] -0.009 | [7] 0.008 | [8] -0.019 | tipifarnib 0.008 | mubritinib -0.018

IMMP2L (UniProt Q96T52)
inactive: [1] -0.086 | crizotinib 0.022 | [2] 0.024 | [3] -0.001 | duvelisib -0.005 | gandotinib -0.058 | tozasertib 0.072 | [4] -0.034 | doramapimod -0.002 | ispinesib 0.022 | bafetinib -0.058 | [9] -0.01 | nilotinib -0.054 | [5] -0.021 | dasatinib 0.06 | [6] 0.044 | [7] -0.001 | [8] -0.008 | tipifarnib 0.035 | mubritinib 0.099

ITGA5 (UniProt P08648)
inactive: [1] 0.018 | crizotinib 0.109 | [2] 0.028 | [3] -0.09 | duvelisib 0.055 | gandotinib -0.031 | tozasertib -0.035 | [4] -0.041 | doramapimod -0.003 | ispinesib 0.069 | bafetinib 0.008 | [9] -0.026 | nilotinib 0.069 | [5] -0.002 | dasatinib 0.018 | [6] -0.007 | [7] 0.045 | [8] -0.003 | tipifarnib -0.021 | mubritinib 0.027

IREB2 (UniProt P48200)
inactive: [1] 0.013 | crizotinib -0.016 | [2] 0.026 | [3] 0.024 | duvelisib -0.037 | gandotinib -0.121 | tozasertib 0.002 | [4] 0.019 | doramapimod 0.079 | ispinesib -0.042 | bafetinib -0.068 | [9] 0.011 | nilotinib -0.035 | [5] -0.023 | dasatinib 0.064 | [6] 0 | [7] 0.083 | [8] -0.015 | tipifarnib 0.022 | mubritinib 0.102

INTS2 (UniProt Q9H0H0)
inactive: [1] 0.072 | crizotinib -0.126 | [2] -0.158 | [3] 0.065 | gandotinib 0.035 | tozasertib 0.096 | doramapimod 0 | ispinesib -0.032 | [9] 0.095 | [7] -0.124 | [8] -0.047 | tipifarnib 0.093 | mubritinib 0.061

IKBIP isoform 4 (UniProt Q70UQ0)
inactive: [1] 0.017 | crizotinib 0.032 | [2] -0.017 | [3] 0.017 | duvelisib 0.015 | gandotinib 0.046 | tozasertib 0.02 | [4] -0.015 | doramapimod 0.021 | ispinesib -0.015 | bafetinib -0.051 | [9] -0.054 | nilotinib 0.007 | [5] 0.011 | dasatinib 0.063 | [6] -0.036 | [7] -0.014 | [8] 0.021 | tipifarnib 0.068 | mubritinib -0.066

ISY1 isoform 1 (UniProt Q9ULR0)
inactive: [1] -0.022 | crizotinib 0.207 | [2] 0.045 | [3] 0.029 | duvelisib 0.045 | gandotinib 0.033 | tozasertib -0.007 | [4] -0.072 | doramapimod 0.023 | ispinesib 0.023 | bafetinib -0.071 | [9] -0.095 | nilotinib -0.036 | [5] 0.04 | dasatinib 0.122 | [6] 0.059 | [7] -0.073 | [8] 0.014 | tipifarnib 0.021 | mubritinib 0.068

ISOC1 (UniProt Q96CN7)
inactive: [1] 0.01 | crizotinib 0.048 | [2] 0.024 | [3] -0.046 | duvelisib -0.025 | gandotinib -0.076 | tozasertib -0.024 | [4] -0.005 | doramapimod -0.01 | ispinesib 0.038 | bafetinib -0.031 | [9] -0.065 | nilotinib -0.002 | [5] -0.009 | dasatinib 0.06 | [6] 0.017 | [7] 0.03 | [8] 0 | tipifarnib 0.01 | mubritinib 0.031

IGBP1 (UniProt P78318)
inactive: [1] -0.012 | crizotinib -0.045 | [2] 0.027 | [3] -0.016 | duvelisib 0.041 | gandotinib -0.055 | tozasertib -0.012 | [4] -0.033 | doramapimod 0 | ispinesib 0.016 | bafetinib 0.016 | [9] -0.016 | nilotinib -0.001 | [5] -0.084 | dasatinib -0.012 | [6] -0.044 | [7] -0.062 | [8] -0.039 | tipifarnib -0.044 | mubritinib 0.102
